Paper PMC10883266, “TTLL12 is required for primary ciliary axoneme formation in polarized epithelial cells” (EMBO Reports, 2023)

Protein sequences, listed by entry. Tags and fused reporters are not part of them. Lines headed by an entry give the natural chain unless they say otherwise; changes in a name come on top.
UniProt Q14166: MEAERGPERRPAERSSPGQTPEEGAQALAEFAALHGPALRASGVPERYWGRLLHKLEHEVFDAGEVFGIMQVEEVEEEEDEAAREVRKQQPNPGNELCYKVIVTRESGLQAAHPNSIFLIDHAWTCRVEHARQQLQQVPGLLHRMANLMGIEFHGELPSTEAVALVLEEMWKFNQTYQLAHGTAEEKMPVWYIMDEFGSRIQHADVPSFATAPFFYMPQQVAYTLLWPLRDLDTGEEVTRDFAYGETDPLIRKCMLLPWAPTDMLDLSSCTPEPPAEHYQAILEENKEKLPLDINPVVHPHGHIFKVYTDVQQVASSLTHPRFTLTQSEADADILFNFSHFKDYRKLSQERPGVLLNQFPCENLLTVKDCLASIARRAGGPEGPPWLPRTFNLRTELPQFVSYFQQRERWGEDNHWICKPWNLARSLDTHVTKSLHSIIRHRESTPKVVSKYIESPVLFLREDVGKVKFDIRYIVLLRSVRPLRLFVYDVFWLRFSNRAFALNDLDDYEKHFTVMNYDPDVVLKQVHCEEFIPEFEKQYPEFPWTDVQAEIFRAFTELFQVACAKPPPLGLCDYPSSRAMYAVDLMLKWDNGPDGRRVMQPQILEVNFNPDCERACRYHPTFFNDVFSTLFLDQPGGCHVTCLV
UniProt A0A8I3Q624: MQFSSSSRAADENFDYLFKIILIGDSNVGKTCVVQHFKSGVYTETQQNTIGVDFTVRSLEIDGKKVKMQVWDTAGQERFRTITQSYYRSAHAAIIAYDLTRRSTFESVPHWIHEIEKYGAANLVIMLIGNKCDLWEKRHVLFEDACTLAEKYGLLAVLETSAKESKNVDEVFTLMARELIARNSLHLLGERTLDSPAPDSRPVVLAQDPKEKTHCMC

Biological target: GFP-TTLL12 (human) (UniProt Q14166)
Assay: affinity purification with mass spectrometry; MDCK cells expressing GFP alone or GFP-TTLL12 lysed in 20 mM HEPES pH 7.4, 150 mM NaCl, 1% Triton X-100; GST-tagged GFP nanobody on Affigel resin; hits enriched at least sixfold over GFP alone

binding: binds
Substance: endogenous Rab19 (MDCK cells) (from UniProt A0A8I3Q624)

Results are given in words; binding and its absence hold for the method and conditions named. In cells and extracts the contact can be indirect. Here binding means that the protein was enriched with, or labelled near, the bait; the list need not be complete.
